# Data taken from patent publication US7579335B2, “Androstane 17α-carbonate derivatives for use in the treatment of allergic and inflammatory conditions” (Glaxo Group Limited, priority 2005, dated 2009).
# Some entries share one result that the patent states for a list of compounds.
# How the values were obtained:
# glucocorticoid receptor = target: T1, glucocorticoid receptor (Homo sapiens, UniProt P04150); assay: Assay for transrepression activity of the glucocorticoid agonists (NF-κB/ELAM-sPAP reporter, TNF stimulated); format: cell-based; conditions: A549 cells, NF-κB responsive ELAM promoter-sPAP reporter; compound 1 hour, then TNF 10 ng/ml for 16 hours
# T1 sequence (P04150 1-777): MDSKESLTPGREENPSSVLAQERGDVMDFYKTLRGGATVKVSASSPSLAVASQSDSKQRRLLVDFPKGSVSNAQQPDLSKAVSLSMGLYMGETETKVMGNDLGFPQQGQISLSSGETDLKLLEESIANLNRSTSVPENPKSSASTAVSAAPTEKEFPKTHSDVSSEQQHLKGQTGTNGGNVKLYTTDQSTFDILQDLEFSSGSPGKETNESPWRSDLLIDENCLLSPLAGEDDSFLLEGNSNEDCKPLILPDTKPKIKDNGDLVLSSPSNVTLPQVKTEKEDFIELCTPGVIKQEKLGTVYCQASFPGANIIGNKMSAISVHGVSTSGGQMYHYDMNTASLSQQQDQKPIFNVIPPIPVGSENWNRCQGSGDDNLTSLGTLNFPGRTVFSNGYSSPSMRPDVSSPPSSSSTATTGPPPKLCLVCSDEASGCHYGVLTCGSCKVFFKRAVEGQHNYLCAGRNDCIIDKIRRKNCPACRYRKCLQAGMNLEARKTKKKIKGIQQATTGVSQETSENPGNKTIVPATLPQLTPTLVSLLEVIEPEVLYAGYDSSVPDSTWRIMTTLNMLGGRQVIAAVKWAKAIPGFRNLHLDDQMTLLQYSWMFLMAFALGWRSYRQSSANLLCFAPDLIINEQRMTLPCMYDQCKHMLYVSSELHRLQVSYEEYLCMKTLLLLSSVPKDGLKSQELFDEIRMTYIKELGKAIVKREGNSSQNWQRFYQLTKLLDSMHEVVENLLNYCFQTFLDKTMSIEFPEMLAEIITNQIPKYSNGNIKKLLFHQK
# Experimental: Assay for Transrepression Activity of the Glucocorticoid Agonists
# The functional assay based on that described by K. P. Ray et al., Biochem J. (1997), 328, 707-715 provides a measure of transrepressive activity of a glucocorticoid agonist. A549 cells stably transfected with a reporter gene containing the NF-κB responsive elements from the ELAM gene promoter coupled to sPAP (secreted alkaline phosphatase) are treated with test compounds at appropriate doses for 1 hour at 37° C. The cells are then stimulated with tumour necrosis factor (TNF, 10 ng/ml) for 16 hours, at which time the amount of alkaline phosphatase produced is measured by a standard colourimetric assay. Dose response curves were constructed from which EC50 values were estimated.
# progesterone receptor = target: T2, progesterone receptor (Homo sapiens, UniProt P06401); assay: Assay for progesterone receptor activity (PRb-BacMam/MMTV-BacMam transduced CV-1 cells); format: cell-based; conditions: CV-1 cells transduced with PRb-BacMam and MMTV-BacMam; 24 h
# T2 construct: expressed in transfected cells; host or cells: CV-1 cells transduced with PRb-BacMam (baculovirus)
# T2 sequence (P06401 1-933): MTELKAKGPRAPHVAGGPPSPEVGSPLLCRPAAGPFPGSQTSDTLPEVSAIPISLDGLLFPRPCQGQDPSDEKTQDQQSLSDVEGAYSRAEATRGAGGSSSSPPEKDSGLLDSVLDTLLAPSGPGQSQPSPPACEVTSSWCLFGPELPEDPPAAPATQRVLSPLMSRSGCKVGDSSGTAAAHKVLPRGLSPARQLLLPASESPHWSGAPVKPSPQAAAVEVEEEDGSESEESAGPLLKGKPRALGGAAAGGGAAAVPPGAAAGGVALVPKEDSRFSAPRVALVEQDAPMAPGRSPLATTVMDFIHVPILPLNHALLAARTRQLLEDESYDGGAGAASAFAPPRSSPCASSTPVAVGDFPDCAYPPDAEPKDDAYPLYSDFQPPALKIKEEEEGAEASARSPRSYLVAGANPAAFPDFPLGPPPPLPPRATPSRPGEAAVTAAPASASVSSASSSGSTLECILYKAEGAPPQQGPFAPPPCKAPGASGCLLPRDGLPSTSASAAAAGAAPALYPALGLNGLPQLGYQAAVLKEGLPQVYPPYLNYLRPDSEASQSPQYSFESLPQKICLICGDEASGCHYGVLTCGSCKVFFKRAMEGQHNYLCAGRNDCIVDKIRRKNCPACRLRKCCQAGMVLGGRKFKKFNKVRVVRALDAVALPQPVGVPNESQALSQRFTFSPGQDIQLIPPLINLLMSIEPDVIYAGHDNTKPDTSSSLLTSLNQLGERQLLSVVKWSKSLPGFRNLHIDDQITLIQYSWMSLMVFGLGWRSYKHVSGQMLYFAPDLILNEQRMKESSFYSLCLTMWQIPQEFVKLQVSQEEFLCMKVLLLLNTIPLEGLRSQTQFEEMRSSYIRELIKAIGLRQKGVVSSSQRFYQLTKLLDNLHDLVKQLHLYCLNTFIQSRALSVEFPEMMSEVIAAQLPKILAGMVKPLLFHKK
SMILES,pEC50 transrepression (glucocorticoid receptor),pEC50 progesterone receptor (progesterone receptor)
"CCC(C)(C)OC(=O)O[C@]1(C(=O)OCC#N)[C@H](C)C[C@H]2[C@@H]3C[C@H](F)C4=CC(=O)C=C[C@]4(C)[C@@]3(F)[C@@H](O)C[C@@]21C [Example 2, Cyanomethyl (6α,11β,16α,17α)-17-({[(1,1-dimethylpropyl)oxy]carbonyl}oxy)-6,9-difluoro-11-hydroxy-16-methyl-3-oxoandrosta-1,4-diene-17-carboxylate]",> 7.5,< 7
"C[C@@H]1C[C@H]2[C@@H]3C[C@H](F)C4=CC(=O)C=C[C@]4(C)[C@@]3(F)[C@@H](O)C[C@]2(C)[C@@]1(OC(=O)OC(C)(C)C)C(=O)OCC#N [Example 1, Cyanomethyl (6α,11β,16α,17α)-17-({[(1,1-dimethylethyl)oxy]carbonyl}oxy)-6,9-difluoro-11-hydroxy-16-methyl-3-oxoandrosta-1,4-diene-17-carboxylate]",> 7.5,< 7
"CC(C)C(C)OC(=O)O[C@]1(C(=O)OCC#N)[C@H](C)C[C@H]2[C@@H]3C[C@H](F)C4=CC(=O)C=C[C@]4(C)[C@@]3(F)[C@@H](O)C[C@@]21C (stereo partly drawn) [Example 8, Cyanomethyl (6α,11β,16α,17α)-17-({[(1,2-dimethylpropyl)oxy]carbonyl}oxy)-6,9-difluoro-11-hydroxy-16-methyl-3-oxoandrosta-1,4-diene-17-carboxylate]",> 7.5,< 7
"CC(C)C1CCC(OC(=O)O[C@]2(C(=O)OCC#N)[C@H](C)C[C@H]3[C@@H]4C[C@H](F)C5=CC(=O)C=C[C@]5(C)[C@@]4(F)[C@@H](O)C[C@@]32C)CC1 (stereo partly drawn) [Example 11, Cyanomethyl (6α,11β,16α,17α)-6,9-difluoro-11-hydroxy-16-methyl-17-[({[4-(1-methylethyl)cyclohexyl]oxy}carbonyl)oxy]-3-oxoandrosta-1,4-diene-17-carboxylate]",> 7.5,< 7
"CCC(OC(=O)O[C@]1(C(=O)OCC#N)[C@H](C)C[C@H]2[C@@H]3C[C@H](F)C4=CC(=O)C=C[C@]4(C)[C@@]3(F)[C@@H](O)C[C@@]21C)C(C)C (stereo partly drawn) [Example 7, Cyanomethyl (6α,11β,16α,17α)-17-({[(1-ethyl-2-methylpropyl)oxy]carbonyl}oxy)-6,9-difluoro-11-hydroxy-16-methyl-3-oxoandrosta-1,4-diene-17-carboxylate]",> 7.5,< 7
"C[C@@H]1C[C@H]2[C@@H]3C[C@H](F)C4=CC(=O)C=C[C@]4(C)[C@@]3(F)[C@@H](O)C[C@]2(C)[C@@]1(OC(=O)OC1CCCC1)C(=O)OCC#N [Example 9, Cyanomethyl (6α,11β,16α,17α)-17-{[(cyclopentyloxy)carbonyl]oxy}-6,9-difluoro-11-hydroxy-16-methyl-3-oxoandrosta-1,4-diene-17-carboxylate]",> 7.5,< 7
"C[C@@H]1C[C@H]2[C@@H]3C[C@H](F)C4=CC(=O)C=C[C@]4(C)[C@@]3(F)[C@@H](O)C[C@]2(C)[C@@]1(OC(=O)O[C@H]1C[C@H]2CC[C@]1(C)C2(C)C)C(=O)OCC#N [Example 15, Cyanomethyl (6α,11β,16α,17α)-6,9-difluoro-11-hydroxy-16-methyl-3-oxo-17-[({[(1R,2S,4R)-1,7,7-trimethylbicyclo[2.2.1]hept-2-yl]oxy}carbonyl)oxy]androsta-1,4-diene-17-carboxylate]",> 7.5,< 7
